Some of these results come from one statement about several compounds together.
Tested on: aged ZDF rats
Details: rat, in vivo

Compound: CN(CCOc1ccc(CC2SC(=O)NC2=O)cc1)c1ccccn1 (stereo not shown) [Rosiglitazone]
- Blood glucose levels (no significant reduction at any time point): 400 to 460 mg/dL

From patent publication US20060089325A1, “Antisense modulation of PTP1B expression” (priority 2004, published 2006)
